The text below walks through data of article PMC2978108.

The target of test [1] is T1, GST-GRD (GRD domain of GAPA, residues 202-557, GST fusion) (D. discoideum) (UniProt O00899).
T1 sequence: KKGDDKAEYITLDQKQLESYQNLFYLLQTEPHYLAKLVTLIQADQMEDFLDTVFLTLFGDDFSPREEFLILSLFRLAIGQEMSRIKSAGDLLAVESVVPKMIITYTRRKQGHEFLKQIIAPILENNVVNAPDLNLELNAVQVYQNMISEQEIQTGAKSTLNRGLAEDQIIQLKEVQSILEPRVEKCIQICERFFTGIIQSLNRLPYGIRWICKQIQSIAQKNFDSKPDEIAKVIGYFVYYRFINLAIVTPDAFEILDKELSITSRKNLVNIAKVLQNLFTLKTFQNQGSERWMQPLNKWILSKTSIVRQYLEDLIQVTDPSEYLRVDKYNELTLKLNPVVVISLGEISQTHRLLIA
The experiment in a line: pull-down; GST-GRD on glutathione sepharose beads as bait with His-tagged cortexillin I polypeptides.

Test [2] concerns the target T1, GST-GRD (GRD domain of GAPA, residues 202-557, GST fusion) (D. discoideum). Briefly: pull-down; GST-GRD bound beads incubated 3 hrs at 4°C with lysates of cells expressing Rac proteins as GFP fusions; 25 mM Tris/HCl pH 7.5, 150 mM NaCl, 5 mM EDTA, 0.5% Triton X-100, 1 mM NaF, 0.5 mM Na3VO4, 1 mM DTT; blot with GFP mAb; only the target purified.
Test [3] has the same target. The experiment in a line: pull-down; glutathione sepharose beads coated with GST-GRD or GST-GAPA incubated with D. discoideum cell lysates at 4°C; eluates resolved by SDS-PAGE and immunoblotted; only the target purified. For orientation: Immunoblotting shows a protein as a band on a membrane.

These are yes or no findings as the source states them, for the method shown. Binding seen in cells or lysates may run through a third protein. A result given as binding can be weak or reduced; the word gives no strength. Tags and fused reporters may be left off the sequences shown.

Regarding “His-tagged ABD domain of cortexillin I (D. discoideum) (domain or fragment)”, in test [1], the binding result was “binds”.

For “GFP-RacI (D. discoideum RacI as GFP fusion)”, in test [2], the binding entry is “binds”.

For “GFP-rod1-6 (the six rod repeats of Filamin, GFP-tagged) (D. discoideum) (domain or fragment)”, the binding result in test [3] is on record as “no binding”.

As for “GFP-ABD (actin binding domain of Filamin, GFP-tagged) (D. discoideum) (domain or fragment)”, the binding entry in test [3] is “binds”.

Regarding “GFP-RacH (D. discoideum RacH as GFP fusion)”, the binding entry in test [2] is “binds”.

For the substance “GFP-RacG (D. discoideum RacG as GFP fusion)”, the binding result in test [2] is on record as “binds”.
